From the supplement of paper PMC6078165

System: BT20
Test: relative JC-1 red fluorescence (viability) vs pre-drug, coculture with fibroblast (fraction); higher = more viable cancer cells
Procedure: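 JC-1 labelled TNBC cells cocultured 1:1 (1,500 cells each) with CellTrace Violet stained primary or stromal fibroblasts in 384-well plates in FluoroBrite medium, treated with one of 42 anticancer drugs at 0.1, 1, 10 or 100 uM. JC-1 red fluorescence (mitochondrial integrity in cancer cells only) was read by plate reader every 8 h for 72 h. Values are normalised to each well's pre-drug value. The stock of one drug was tenfold lower, so its dose labels may be too high.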

CC(=O)c1c(C)c2cnc(Nc3ccc(N4CCNCC4)cn3)nc2n(C2CCCC2)c1=O [Palbociclib]
relative JC-1 red fluorescence
Conditions | 8 h | 16 h | 24 h | 32 h | 40 h | 48 h | 56 h | 64 h | 72 h
0.1 µM, coculture fibroblast: C12385 | 0.9292 | 0.863 | 0.858 | 0.801 | 0.751 | 0.728 | 0.704 | 0.686 | 0.675
0.1 µM, coculture fibroblast: H6013 | 0.87 | 0.889 | 0.852 | 0.8 | 0.766 | 0.748 | 0.748 | 0.728 | 0.722
0.1 µM, coculture fibroblast: H6019 | 0.8517 | 0.759 | 0.729 | 0.669 | 0.62 | 0.601 | 0.569 | 0.545 | 0.532
0.1 µM, coculture fibroblast: H6076 | 0.984 | 0.8898 | 0.814 | 0.7833 | 0.7454 | 0.7254 | 0.7067 | 0.703 | 0.682
0.1 µM, coculture fibroblast: H6231 | 0.9263 | 0.93 | 0.811 | 0.742 | 0.695 | 0.651 | 0.616 | 0.5965 | 0.569
0.1 µM, coculture fibroblast: HADF | 0.896 | 0.882 | 0.86 | 0.816 | 0.787 | 0.756 | 0.7367 | 0.721 | 0.695
0.1 µM, coculture fibroblast: HCFa | 0.949 | 0.859 | 0.812 | 0.768 | 0.731 | 0.708 | 0.682 | 0.67 | 0.635
0.1 µM, coculture fibroblast: HCPF | 0.863 | 0.954 | 0.8558 | 0.8003 | 0.7555 | 0.7099 | 0.6628 | 0.642 | 0.6083
0.1 µM, coculture fibroblast: HHSteC | 0.9133 | 0.84 | 0.8196 | 0.7432 | 0.698 | 0.665 | 0.641 | 0.617 | 0.586
0.1 µM, coculture fibroblast: HMF | 0.773 | 0.919 | 0.815 | 0.753 | 0.702 | 0.658 | 0.621 | 0.598 | 0.572
0.1 µM, coculture fibroblast: HPFa | 0.972 | 0.896 | 0.893 | 0.807 | 0.789 | 0.764 | 0.734 | 0.721 | 0.684
0.1 µM, coculture fibroblast: HUF | 0.9055 | 0.808 | 0.804 | 0.732 | 0.69 | 0.66 | 0.652 | 0.638 | 0.623
0.1 µM, coculture fibroblast: Hs5 | 0.76 | 0.929 | 0.847 | 0.789 | 0.735 | 0.6961 | 0.6517 | 0.618 | 0.5948
0.1 µM, coculture fibroblast: Hs27A | 0.851 | 0.885 | 0.886 | 0.8714 | 0.817 | 0.786 | 0.76 | 0.726 | 0.671
0.1 µM, coculture fibroblast: Hs343T | 0.9544 | 0.8595 | 0.7849 | 0.738 | 0.697 | 0.659 | 0.619 | 0.601 | 0.571
0.1 µM, coculture fibroblast: WS1 | 0.891 | 0.785 | 0.751 | 0.698 | 0.663 | 0.654 | 0.641 | 0.626 | 0.626
1 µM, coculture fibroblast: C12385 | 0.891 | 0.786 | 0.769 | 0.713 | 0.665 | 0.644 | 0.623 | 0.607 | 0.59
1 µM, coculture fibroblast: H6013 | 0.9028 | 0.873 | 0.844 | 0.802 | 0.755 | 0.747 | 0.753 | 0.731 | 0.72
1 µM, coculture fibroblast: H6019 | 0.882 | 0.8017 | 0.795 | 0.732 | 0.691 | 0.676 | 0.64 | 0.612 | 0.59
1 µM, coculture fibroblast: H6076 | 0.971 | 0.9 | 0.8481 | 0.8207 | 0.81145 | 0.7912 | 0.785 | 0.785 | 0.761
1 µM, coculture fibroblast: H6231 | 0.779 | 0.9819 | 0.865 | 0.7912 | 0.74 | 0.699 | 0.658 | 0.633 | 0.603
1 µM, coculture fibroblast: HADF | 0.965 | 0.904 | 0.882 | 0.841 | 0.814 | 0.786 | 0.77 | 0.758 | 0.73
1 µM, coculture fibroblast: HCFa | 0.9068 | 0.892 | 0.873 | 0.821 | 0.787 | 0.759 | 0.733 | 0.717 | 0.673
1 µM, coculture fibroblast: HCPF | 0.817 | 0.941 | 0.873 | 0.814 | 0.769 | 0.718 | 0.681 | 0.666 | 0.631
1 µM, coculture fibroblast: HHSteC | 0.929 | 0.894 | 0.877 | 0.805 | 0.763 | 0.734 | 0.707 | 0.68 | 0.659
1 µM, coculture fibroblast: HMF | 0.869 | 0.905 | 0.821 | 0.766 | 0.7388 | 0.701 | 0.681 | 0.664 | 0.63
1 µM, coculture fibroblast: HPFa | 0.938 | 0.917 | 0.954 | 0.894 | 0.896 | 0.863 | 0.856 | 0.83 | 0.801
1 µM, coculture fibroblast: HUF | 0.943 | 0.8374 | 0.832 | 0.78 | 0.751 | 0.718 | 0.712 | 0.702 | 0.689
1 µM, coculture fibroblast: Hs5 | 0.885 | 0.896 | 0.84 | 0.784 | 0.752 | 0.715 | 0.68 | 0.657 | 0.622
1 µM, coculture fibroblast: Hs27A | 0.717 | 0.917 | 0.924 | 0.895 | 0.849 | 0.832 | 0.813 | 0.785 | 0.735
1 µM, coculture fibroblast: Hs343T | 0.872 | 0.8834 | 0.806 | 0.756 | 0.71 | 0.679 | 0.663 | 0.653 | 0.635
1 µM, coculture fibroblast: WS1 | 0.885 | 0.763 | 0.736 | 0.676 | 0.629 | 0.606 | 0.581 | 0.558 | 0.551
10 µM, coculture fibroblast: C12385 | 0.9024 | 0.862 | 0.905 | 0.851 | 0.805 | 0.786 | 0.769 | 0.741 | 0.716
10 µM, coculture fibroblast: H6013 | 0.852 | 0.771 | 0.938 | 0.974 | 0.932 | 0.921 | 0.928 | 0.9062 | 0.8973
10 µM, coculture fibroblast: H6019 | 0.915 | 0.909 | 0.8151 | 0.811 | 0.733 | 0.797 | 0.709 | 0.775 | 0.768
10 µM, coculture fibroblast: H6076 | 0.744 | 0.9561 | 0.8818 | 0.867 | 0.837 | 0.803 | 0.787 | 0.786 | 0.766
10 µM, coculture fibroblast: H6231 | 0.787 | 0.952 | 0.857 | 0.807 | 0.772 | 0.724 | 0.686 | 0.662 | 0.637
10 µM, coculture fibroblast: HADF | 0.717 | 0.805 | 0.975 | 0.9707 | 0.936 | 0.905 | 0.899 | 0.881 | 0.846
10 µM, coculture fibroblast: HCFa | 0.86 | 0.911 | 0.848 | 0.8384 | 0.776 | 0.797 | 0.7406 | 0.777 | 0.725
10 µM, coculture fibroblast: HCPF | 0.767 | 0.9334 | 0.8657 | 0.8214 | 0.784 | 0.734 | 0.6939 | 0.678 | 0.641
10 µM, coculture fibroblast: HHSteC | 0.792 | 0.9821 | 0.9607 | 0.8986 | 0.826 | 0.801 | 0.7702 | 0.756 | 0.7241
10 µM, coculture fibroblast: HMF | 0.825 | 0.958 | 0.851 | 0.797 | 0.752 | 0.7049 | 0.6661 | 0.635 | 0.6
10 µM, coculture fibroblast: HPFa | 0.809 | 0.874 | 0.868 | 0.892 | 0.9 | 0.874 | 0.846 | 0.828 | 0.788
10 µM, coculture fibroblast: HUF | 0.947 | 0.889 | 0.85 | 0.78 | 0.743 | 0.708 | 0.68 | 0.663 | 0.636
10 µM, coculture fibroblast: Hs5 | 0.899 | 0.951 | 0.902 | 0.857 | 0.819 | 0.789 | 0.7555 | 0.7297 | 0.702
10 µM, coculture fibroblast: Hs27A | 0.905 | 0.86 | 0.772 | 0.81 | 0.83 | 0.89 | 0.831 | 0.899 | 0.834
10 µM, coculture fibroblast: Hs343T | 0.804 | 0.979 | 0.883 | 0.809 | 0.742 | 0.689 | 0.621 | 0.596 | 0.553
10 µM, coculture fibroblast: WS1 | 0.894 | 0.846 | 0.8304 | 0.788 | 0.755 | 0.736 | 0.718 | 0.694 | 0.675
100 µM, coculture fibroblast: C12385 | 0.847 | 0.62 | 0.442 | 0.313 | 0.242 | 0.214 | 0.1893 | 0.173 | 0.156
100 µM, coculture fibroblast: H6013 | 0.376 | 0.238 | 0.246 | 0.177 | 0.147 | 0.123 | 0.117 | 0.0927 | 0.0741
100 µM, coculture fibroblast: H6019 | 0.868 | 0.718 | 0.644 | 0.579 | 0.508 | 0.484 | 0.455 | 0.436 | 0.417
100 µM, coculture fibroblast: H6076 | 0.791 | 0.986 | 0.862 | 0.81 | 0.803 | 0.768 | 0.73 | 0.695 | 0.647
100 µM, coculture fibroblast: H6231 | 0.815 | 0.957 | 0.74 | 0.624 | 0.549 | 0.471 | 0.41 | 0.373 | 0.355
100 µM, coculture fibroblast: HADF | 0.526 | 0.388 | 0.416 | 0.343 | 0.334 | 0.307 | 0.303 | 0.29 | 0.262
100 µM, coculture fibroblast: HCFa | 0.737 | 0.461 | 0.462 | 0.389 | 0.373 | 0.352 | 0.357 | 0.348 | 0.326
100 µM, coculture fibroblast: HCPF | 0.781 | 0.9 | 0.832 | 0.722 | 0.627 | 0.546 | 0.514 | 0.478 | 0.424
100 µM, coculture fibroblast: HHSteC | 0.462 | 0.34 | 0.346 | 0.27 | 0.244 | 0.214 | 0.206 | 0.186 | 0.156
100 µM, coculture fibroblast: HMF | 0.823 | 0.9546 | 0.867 | 0.775 | 0.689 | 0.603 | 0.524 | 0.48 | 0.43
100 µM, coculture fibroblast: HPFa | 0.737 | 0.438 | 0.383 | 0.296 | 0.265 | 0.232 | 0.222 | 0.199 | 0.17
100 µM, coculture fibroblast: HUF | 0.916 | 0.721 | 0.597 | 0.506 | 0.424 | 0.371 | 0.333 | 0.301 | 0.279
100 µM, coculture fibroblast: Hs5 | 0.788 | 0.917 | 0.7784 | 0.707 | 0.684 | 0.657 | 0.606 | 0.564 | 0.536
100 µM, coculture fibroblast: Hs27A | 0.73 | 0.55 | 0.491 | 0.475 | 0.444 | 0.436 | 0.435 | 0.418 | 0.392
100 µM, coculture fibroblast: Hs343T | 0.871 | 0.986 | 0.87 | 0.754 | 0.642 | 0.529 | 0.47 | 0.431 | 0.394
100 µM, coculture fibroblast: WS1 | 0.851 | 0.651 | 0.517 | 0.413 | 0.349 | 0.32 | 0.295 | 0.272 | 0.253

Values are relative to the signal before dosing, not to a vehicle control; the signal also falls without drug.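 Fibroblast labels denote human fibroblasts, mainly primary ones from uterus (C12385, HUF), lung (H6013), bone (Hs27A), adrenal (HADF) and skin (WS1), plus mammary HMF and breast cancer-associated Hs343T. Cancer cells are basal-like or mesenchymal-like triple-negative breast cancer lines. A hit is a response shift exceeding 3x replicate standard deviation. The tissue of the other fibroblasts is not given here.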
